Measured values published in patent publication US20050201932A1.

Key:
[1] = molecular target: rat polymeric immunoglobulin receptor (pIgR), tested as overlapping 15-residue peptides (rat); assay: peptide ELISA, overlapping 15-residue peptides, phage-displayed scFv
[2] = molecular target: human polymeric immunoglobulin receptor (pIgR), tested as overlapping 15-residue peptides (human); assay: as above

binding [1]: binds
binding [2]: binds
B1: scFv 4A (scFv)
scFv: QVQLVQSGGGLVQPGGSLRLSCAASGFTFSSYAMSWVRQAPGKGLEWVSAISGSGGSTYYADSVKGRFTISRDNSKNTLYLQMNSLRAEDTAVYYCARSFTVNSGYFQHWGQGTLVTVSSGGGGSGGGGSGGGGSEIVLTQSPSTLSASIGDRVTITCRASEGIYHWLAWYQQKPGKAPKLLIYKASSLASGVPSRFSGSGSGTDFTLTISSLQPEDFATYYCQHYDSTPPTFGQGTKVDIKRAAAEQKLISEEDLNGAAHHHHHH

These are yes or no findings as the source states them, for the method shown. Binding calls can cover weak binding; strength is not graded here.
